The values below come from article PMC11612488.

The target in test [1] is T1, 1,25(OH)2D3 receptor (VDR), overexpressed (not stated (human or mouse cDNA cloned)) (UniProt P48281).
T1 sequence: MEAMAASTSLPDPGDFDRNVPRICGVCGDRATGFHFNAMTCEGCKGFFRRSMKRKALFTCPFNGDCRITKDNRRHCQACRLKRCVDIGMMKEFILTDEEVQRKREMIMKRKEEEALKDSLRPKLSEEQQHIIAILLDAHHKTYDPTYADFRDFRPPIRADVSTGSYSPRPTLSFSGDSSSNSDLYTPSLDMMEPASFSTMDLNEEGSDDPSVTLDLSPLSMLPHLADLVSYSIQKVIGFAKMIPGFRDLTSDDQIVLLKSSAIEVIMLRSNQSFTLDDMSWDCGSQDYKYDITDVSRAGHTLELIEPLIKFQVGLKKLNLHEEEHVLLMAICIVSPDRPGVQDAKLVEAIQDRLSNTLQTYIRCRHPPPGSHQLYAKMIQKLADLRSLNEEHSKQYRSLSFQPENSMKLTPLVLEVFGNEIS
The test is described as follows: co-IP; MC3T3-E1 cells transfected with 2-Flag-tagged BBX and VDR plasmids, with or without 1,25(OH)2D3; RIPA lysates (600 ug) precleared, anti-Flag or anti-VDR at 4 °C overnight, Protein-A/G agarose 2 h; immunoblot with the corresponding antibodies. A general note: A western blot detects proteins with antibodies after separation by electrophoresis.

Test [2] has as its target T2, endogenous BBX (bobby sox homolog) (mouse (endogenous in MC3T3-E1)) (UniProt Q8VBW5).
T2 sequence: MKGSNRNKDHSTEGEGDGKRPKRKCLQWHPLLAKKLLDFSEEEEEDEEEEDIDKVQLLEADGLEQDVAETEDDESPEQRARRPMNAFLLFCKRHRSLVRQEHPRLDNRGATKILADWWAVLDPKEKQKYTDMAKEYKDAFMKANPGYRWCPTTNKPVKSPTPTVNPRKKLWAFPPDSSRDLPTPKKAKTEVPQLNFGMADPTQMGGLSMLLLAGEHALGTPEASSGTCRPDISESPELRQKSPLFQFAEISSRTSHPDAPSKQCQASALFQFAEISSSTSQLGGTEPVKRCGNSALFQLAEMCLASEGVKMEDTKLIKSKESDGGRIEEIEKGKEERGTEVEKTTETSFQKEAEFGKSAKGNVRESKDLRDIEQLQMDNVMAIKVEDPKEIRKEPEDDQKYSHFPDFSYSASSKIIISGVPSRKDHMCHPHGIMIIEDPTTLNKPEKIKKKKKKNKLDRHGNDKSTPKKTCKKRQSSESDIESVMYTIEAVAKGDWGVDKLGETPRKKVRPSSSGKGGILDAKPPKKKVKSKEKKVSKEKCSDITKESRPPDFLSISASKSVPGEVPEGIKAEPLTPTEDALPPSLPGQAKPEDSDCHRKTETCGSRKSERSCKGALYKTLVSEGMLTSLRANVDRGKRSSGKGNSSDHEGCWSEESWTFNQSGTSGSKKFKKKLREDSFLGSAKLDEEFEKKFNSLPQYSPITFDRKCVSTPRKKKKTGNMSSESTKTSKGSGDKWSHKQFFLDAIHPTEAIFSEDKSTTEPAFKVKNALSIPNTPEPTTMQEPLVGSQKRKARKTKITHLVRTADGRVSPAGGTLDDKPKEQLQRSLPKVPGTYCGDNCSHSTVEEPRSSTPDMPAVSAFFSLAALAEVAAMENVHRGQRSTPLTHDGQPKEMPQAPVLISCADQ
The test can be described thus: co-IP; endogenous proteins; MC3T3-E1 cells treated with or without 1,25(OH)2D3 (20 nM) for 30 min; immunoprecipitated with anti-BBX or anti-VDR antibodies; immunoblot.

The target of test [3] is T3, 2-Flag-tagged BBX (bobby sox homolog) (not stated (human or mouse cDNA cloned)) (UniProt Q8VBW5).
T3 sequence: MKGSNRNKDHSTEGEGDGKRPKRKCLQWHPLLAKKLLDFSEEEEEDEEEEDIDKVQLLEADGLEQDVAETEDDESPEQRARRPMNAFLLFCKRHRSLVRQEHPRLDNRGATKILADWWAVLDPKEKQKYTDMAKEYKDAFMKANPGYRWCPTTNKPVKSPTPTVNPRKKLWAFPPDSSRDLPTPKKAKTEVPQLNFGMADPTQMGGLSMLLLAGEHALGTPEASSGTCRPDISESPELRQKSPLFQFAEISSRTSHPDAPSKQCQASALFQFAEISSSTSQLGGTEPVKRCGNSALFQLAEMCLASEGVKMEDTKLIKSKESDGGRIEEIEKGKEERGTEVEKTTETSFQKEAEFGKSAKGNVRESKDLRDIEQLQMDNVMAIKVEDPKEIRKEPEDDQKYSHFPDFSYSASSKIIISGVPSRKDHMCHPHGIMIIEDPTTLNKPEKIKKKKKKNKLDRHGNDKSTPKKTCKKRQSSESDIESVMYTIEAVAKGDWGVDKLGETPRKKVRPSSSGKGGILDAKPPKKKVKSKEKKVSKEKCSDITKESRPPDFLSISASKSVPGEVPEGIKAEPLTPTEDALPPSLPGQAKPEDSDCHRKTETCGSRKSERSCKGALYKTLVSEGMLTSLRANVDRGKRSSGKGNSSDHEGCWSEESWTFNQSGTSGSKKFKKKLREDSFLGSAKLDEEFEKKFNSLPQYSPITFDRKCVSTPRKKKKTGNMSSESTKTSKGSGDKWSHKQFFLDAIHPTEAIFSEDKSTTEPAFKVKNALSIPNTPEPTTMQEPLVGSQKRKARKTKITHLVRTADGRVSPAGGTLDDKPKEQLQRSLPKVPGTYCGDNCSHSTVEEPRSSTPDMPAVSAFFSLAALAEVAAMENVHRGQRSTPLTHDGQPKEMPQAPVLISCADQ
The test is described as follows: co-IP; MC3T3-E1 cells transfected with 2-Flag-tagged BBX and VDR plasmids, with or without 1,25(OH)2D3; RIPA lysates (600 ug) precleared, anti-Flag or anti-VDR at 4 °C overnight, Protein-A/G agarose 2 h; immunoblot with the corresponding antibodies.

Results are given in words; binding and its absence hold for the method and conditions named. Binding seen in cells or lysates may run through a third protein. Some results given as binding are weak or reduced against the parent protein; the word gives no strength. For some of these results: Where a sequence is shown, tags or fusion partners need not be part of it.

B1: 2-Flag-tagged BBX (bobby sox homolog) (protein, UniProt Q8VBW5 1-907)
chain: MKGSNRNKDHSTEGEGDGKRPKRKCLQWHPLLAKKLLDFSEEEEEDEEEEDIDKVQLLEADGLEQDVAETEDDESPEQRARRPMNAFLLFCKRHRSLVRQEHPRLDNRGATKILADWWAVLDPKEKQKYTDMAKEYKDAFMKANPGYRWCPTTNKPVKSPTPTVNPRKKLWAFPPDSSRDLPTPKKAKTEVPQLNFGMADPTQMGGLSMLLLAGEHALGTPEASSGTCRPDISESPELRQKSPLFQFAEISSRTSHPDAPSKQCQASALFQFAEISSSTSQLGGTEPVKRCGNSALFQLAEMCLASEGVKMEDTKLIKSKESDGGRIEEIEKGKEERGTEVEKTTETSFQKEAEFGKSAKGNVRESKDLRDIEQLQMDNVMAIKVEDPKEIRKEPEDDQKYSHFPDFSYSASSKIIISGVPSRKDHMCHPHGIMIIEDPTTLNKPEKIKKKKKKNKLDRHGNDKSTPKKTCKKRQSSESDIESVMYTIEAVAKGDWGVDKLGETPRKKVRPSSSGKGGILDAKPPKKKVKSKEKKVSKEKCSDITKESRPPDFLSISASKSVPGEVPEGIKAEPLTPTEDALPPSLPGQAKPEDSDCHRKTETCGSRKSERSCKGALYKTLVSEGMLTSLRANVDRGKRSSGKGNSSDHEGCWSEESWTFNQSGTSGSKKFKKKLREDSFLGSAKLDEEFEKKFNSLPQYSPITFDRKCVSTPRKKKKTGNMSSESTKTSKGSGDKWSHKQFFLDAIHPTEAIFSEDKSTTEPAFKVKNALSIPNTPEPTTMQEPLVGSQKRKARKTKITHLVRTADGRVSPAGGTLDDKPKEQLQRSLPKVPGTYCGDNCSHSTVEEPRSSTPDMPAVSAFFSLAALAEVAAMENVHRGQRSTPLTHDGQPKEMPQAPVLISCADQ
Turning to B1, the binding entry in test [1] was “binds”.

B2: endogenous 1,25(OH)2D3 receptor (VDR) (receptor, UniProt P48281 1-422)
chain: MEAMAASTSLPDPGDFDRNVPRICGVCGDRATGFHFNAMTCEGCKGFFRRSMKRKALFTCPFNGDCRITKDNRRHCQACRLKRCVDIGMMKEFILTDEEVQRKREMIMKRKEEEALKDSLRPKLSEEQQHIIAILLDAHHKTYDPTYADFRDFRPPIRADVSTGSYSPRPTLSFSGDSSSNSDLYTPSLDMMEPASFSTMDLNEEGSDDPSVTLDLSPLSMLPHLADLVSYSIQKVIGFAKMIPGFRDLTSDDQIVLLKSSAIEVIMLRSNQSFTLDDMSWDCGSQDYKYDITDVSRAGHTLELIEPLIKFQVGLKKLNLHEEEHVLLMAICIVSPDRPGVQDAKLVEAIQDRLSNTLQTYIRCRHPPPGSHQLYAKMIQKLADLRSLNEEHSKQYRSLSFQPENSMKLTPLVLEVFGNEIS
B2: the binding entry in test [2] and in test [3] was “binds” each time.

B3: 1,25(OH)2D3 receptor (VDR), overexpressed (receptor, UniProt P48281 1-422)
chain: MEAMAASTSLPDPGDFDRNVPRICGVCGDRATGFHFNAMTCEGCKGFFRRSMKRKALFTCPFNGDCRITKDNRRHCQACRLKRCVDIGMMKEFILTDEEVQRKREMIMKRKEEEALKDSLRPKLSEEQQHIIAILLDAHHKTYDPTYADFRDFRPPIRADVSTGSYSPRPTLSFSGDSSSNSDLYTPSLDMMEPASFSTMDLNEEGSDDPSVTLDLSPLSMLPHLADLVSYSIQKVIGFAKMIPGFRDLTSDDQIVLLKSSAIEVIMLRSNQSFTLDDMSWDCGSQDYKYDITDVSRAGHTLELIEPLIKFQVGLKKLNLHEEEHVLLMAICIVSPDRPGVQDAKLVEAIQDRLSNTLQTYIRCRHPPPGSHQLYAKMIQKLADLRSLNEEHSKQYRSLSFQPENSMKLTPLVLEVFGNEIS
Consider B3, for which the binding entry in test [3] is recorded as “binds”.
